{"sequences": {"note": "Sequences of proteins named here, by UniProt entry; tags and fusion partners are left off. A change or cut given only in a name is not applied to a line headed by its entry. A line that says so, or that is headed by a name, gives the form on record, which may keep a tag or linker.", "UniProt Q59111, other isoform, or with tags, fused parts or gaps": "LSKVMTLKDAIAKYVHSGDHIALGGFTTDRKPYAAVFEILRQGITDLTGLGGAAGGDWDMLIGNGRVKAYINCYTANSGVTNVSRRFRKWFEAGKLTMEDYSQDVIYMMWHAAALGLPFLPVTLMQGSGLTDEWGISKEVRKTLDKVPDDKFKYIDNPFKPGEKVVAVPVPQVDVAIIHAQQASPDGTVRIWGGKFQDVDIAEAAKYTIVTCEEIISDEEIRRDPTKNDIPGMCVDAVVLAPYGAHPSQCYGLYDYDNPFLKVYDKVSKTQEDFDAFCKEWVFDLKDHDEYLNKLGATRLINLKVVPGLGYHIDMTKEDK", "UniProt Q59112": "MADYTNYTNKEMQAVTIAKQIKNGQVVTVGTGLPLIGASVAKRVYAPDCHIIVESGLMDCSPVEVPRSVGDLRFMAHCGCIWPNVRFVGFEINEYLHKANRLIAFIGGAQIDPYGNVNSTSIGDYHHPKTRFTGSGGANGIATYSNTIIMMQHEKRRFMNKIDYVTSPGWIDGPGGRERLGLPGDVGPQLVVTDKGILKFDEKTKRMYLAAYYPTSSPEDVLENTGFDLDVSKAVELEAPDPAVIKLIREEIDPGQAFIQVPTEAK"}, "source": "patent US8778645B2", "about": "“Method for the production of glutaconate” (BASF SE, priority 2009, dated 2014)", "origin": "cited, not measured here", "target": "Glutaconate CoA-transferase from A. fermentans (Acidaminococcus fermentans, UniProt Q59111+Q59112)", "settings": "Buckel et al. 1981; cited from earlier work", "note": "At least one compound was matched to its structure with a doubt left."}
{"smiles": "O=C(O)CCCC(=O)O", "note": "[glutarate]", "values": [{"measurement": "Substrate of the enzyme", "value": "acts on"}]}
